Experimental data taken from paper PMC11702068, “NEK8 promotes the progression of gastric cancer by reprogramming asparagine metabolism” (Molecular Medicine, 2025).

B1: His-tagged ASNS (enzyme, UniProt P08243 1-561)
chain: MCGIWALFGSDDCLSVQCLSAMKIAHRGPDAFRFENVNGYTNCCFGFHRLAVVDPLFGMQPIRVKKYPYLWLCYNGEIYNHKKMQQHFEFEYQTKVDGEIILHLYDKGGIEQTICMLDGVFAFVLLDTANKKVFLGRDTYGVRPLFKAMTEDGFLAVCSEAKGLVTLKHSATPFLKVEPFLPGHYEVLDLKPNGKVASVEMVKYHHCRDVPLHALYDNVEKLFPGFEIETVKNNLRILFNNAVKKRLMTDRRIGCLLSGGLDSSLVAATLLKQLKEAQVQYPLQTFAIGMEDSPDLLAARKVADHIGSEHYEVLFNSEEGIQALDEVIFSLETYDITTVRASVGMYLISKYIRKNTDSVVIFSGEGSDELTQGYIYFHKAPSPEKAEEESERLLRELYLFDVLRADRTTAAHGLELRVPFLDHRFSSYYLSLPPEMRIPKNGIEKHLLRETFEDSNLIPKEILWRPKEAFSDGITSVKNSWFKILQEYVEHQVDDAMMANAAQKFPFNTPKTKEGYYYRQVFERHYPGRADWLSHYWMPKWINATDPSARTLTHYKSAVKA
B2: His-NEK8 (enzyme, UniProt Q86SG6 1-692)
chain: MEKYERIRVVGRGAFGIVHLCLRKADQKLVIIKQIPVEQMTKEERQAAQNECQVLKLLNHPNVIEYYENFLEDKALMIAMEYAPGGTLAEFIQKRCNSLLEEETILHFFVQILLALHHVHTHLILHRDLKTQNILLDKHRMVVKIGDFGISKILSSKSKAYTVVGTPCYISPELCEGKPYNQKSDIWALGCVLYELASLKRAFEAANLPALVLKIMSGTFAPISDRYSPELRQLVLSLLSLEPAQRPPLSHIMAQPLCIRALLNLHTDVGSVRMRRAEKSVAPSNTGSRTTSVRCRGIPRGPVRPAIPPPLSSVYAWGGGLGTPLRLPMLNTEVVQVAAGRTQKAGVTRSGRLILWEAPPLGAGGGSLLPGAVEQPQPQFISRFLEGQSGVTIKHVACGDFFTACLTDRGIIMTFGSGSNGCLGHGSLTDISQPTIVEALLGYEMVQVACGASHVLALSTERELFAWGRGDSGRLGLGTRESHSCPQQVPMPPGQEAQRVVCGIDSSMILTVPGQALACGSNRFNKLGLDHLSLGEEPVPHQQVEEALSFTLLGSAPLDQEPLLSIDLGTAHSAAVTASGDCYTFGSNQHGQLGTNTRRGSRAPCKVQGLEGIKMAMVACGDAFTVAIGAESEVYSWGKGARGRLGRRDEDAGLPRPVQLDETHPYTVTSVSCCHGNTLLAVRSVTDEPVPP

Key:
GST-NEK8 RCC1 domain = experiment: pull-down; GST affinity isolation: GST-tagged NEK8 or ASNS proteins on glutathione-Sepharose 4B beads incubated with His-tagged ASNS or NEK8 at 4 °C for five hours; wash with GST binding buffer (2 mM EDTA, 50 mM NaF, 100 mM NaCl, 1% NP-40); immunoblotting; both purified
GST-ASNS GATase-2 domain = experiment: as above

Binder | binding (GST-NEK8 RCC1 domain) | binding (GST-ASNS GATase-2 domain)
B1 | no binding | –
B2 | – | no binding

No constants are given. Whether binding was seen depends on the method and setting. Sequences can lack the tags named with a protein.
